Data as given in patent publication US8476434B2, “Protein kinase modulators and method of use” (Amgen Inc., priority 2004, dated 2013).
Some entries share one result that the patent states for a list of compounds.

Sequences of proteins named here, by UniProt entry; tags and fusion partners are left off. Residues count along the entry.
UniProt Q02763, 23-1124: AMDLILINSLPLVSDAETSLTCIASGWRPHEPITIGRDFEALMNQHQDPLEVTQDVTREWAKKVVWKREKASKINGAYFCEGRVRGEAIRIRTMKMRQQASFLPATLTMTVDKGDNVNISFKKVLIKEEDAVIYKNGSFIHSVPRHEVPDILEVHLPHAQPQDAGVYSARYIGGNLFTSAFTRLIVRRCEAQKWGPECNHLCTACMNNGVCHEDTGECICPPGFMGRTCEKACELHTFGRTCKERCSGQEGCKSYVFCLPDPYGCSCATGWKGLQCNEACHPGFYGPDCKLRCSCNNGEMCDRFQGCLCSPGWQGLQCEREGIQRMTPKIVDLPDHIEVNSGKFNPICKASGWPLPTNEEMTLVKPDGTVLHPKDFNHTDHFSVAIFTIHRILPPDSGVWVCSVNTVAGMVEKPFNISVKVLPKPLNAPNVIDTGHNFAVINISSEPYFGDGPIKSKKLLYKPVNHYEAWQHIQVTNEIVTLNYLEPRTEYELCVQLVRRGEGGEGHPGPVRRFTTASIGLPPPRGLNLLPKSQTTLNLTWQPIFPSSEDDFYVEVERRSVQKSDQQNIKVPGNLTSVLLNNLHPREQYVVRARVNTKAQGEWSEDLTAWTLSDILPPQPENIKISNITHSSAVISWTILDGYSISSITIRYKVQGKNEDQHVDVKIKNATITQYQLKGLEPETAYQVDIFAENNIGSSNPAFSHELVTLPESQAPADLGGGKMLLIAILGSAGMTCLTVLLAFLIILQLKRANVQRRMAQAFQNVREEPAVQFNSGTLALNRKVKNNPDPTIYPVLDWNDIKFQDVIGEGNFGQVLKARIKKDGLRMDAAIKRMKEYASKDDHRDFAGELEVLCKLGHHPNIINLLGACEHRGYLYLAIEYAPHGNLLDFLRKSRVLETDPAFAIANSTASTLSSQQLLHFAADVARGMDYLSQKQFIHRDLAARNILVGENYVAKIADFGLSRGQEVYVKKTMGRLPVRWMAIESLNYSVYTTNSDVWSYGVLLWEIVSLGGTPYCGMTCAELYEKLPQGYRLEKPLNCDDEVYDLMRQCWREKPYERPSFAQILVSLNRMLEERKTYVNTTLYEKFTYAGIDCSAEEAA

target: T1, AuroraA-TPX2 KD GST (Homo sapiens, UniProt O14965); test: AuroraA-TPX2 Homogeneous Time Resolved Fluorescent (HTRF) kinase assay; assay type: biochemical; conditions: read-out: activity in the Aurora kinase A HTRF assay
T1 construct: AuroraA-TPX2 KD GST; GST
T1 sequence (O14965 133-383 limits assumed): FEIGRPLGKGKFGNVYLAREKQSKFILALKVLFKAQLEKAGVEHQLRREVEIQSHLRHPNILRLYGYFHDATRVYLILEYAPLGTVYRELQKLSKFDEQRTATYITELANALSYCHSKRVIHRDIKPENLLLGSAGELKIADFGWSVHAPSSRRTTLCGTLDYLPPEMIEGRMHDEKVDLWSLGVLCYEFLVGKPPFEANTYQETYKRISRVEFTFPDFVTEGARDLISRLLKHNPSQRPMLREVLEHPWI
T1 sequence (Q9ULW0 1-43 partner limits assumed): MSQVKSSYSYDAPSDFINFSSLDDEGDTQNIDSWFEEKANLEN

Structure (SMILES) | IC50 [µM]
Cc1cc(C(=O)Nc2ccc(C(C)C)cc2)ccc1Oc1ncccc1-c1ccncn1 [Example 271, 3-methyl-N-(4-(1-methylethyl)phenyl)-4-((3-(4-pyrimidinyl)-2-pyridinyl)oxy)benzamide] | < 10
CNc1nccc(-c2cccnc2Oc2ccc(CC(=O)Nc3cccc(F)c3)cc2)n1 [Example 543, N-(3-fluorophenyl)-2-(4-((3-(2-(methylamino)-4-pyrimidinyl)-2-pyridinyl)oxy)phenyl) acetamide] | < 10
CNc1nccc(-c2cccnc2Oc2ccc(CC(=O)Nc3cccc(C(N)=O)c3)cc2)n1 [Example 545, 3-(((4-((3-(2-(methylamino)-4-pyrimidinyl)-2-pyridinyl)oxy)phenyl)acetyl)amino)benzamide] | < 10
CNc1nccc(-c2cccnc2Oc2ccc(CC(=O)Nc3cc(C)on3)cc2)n1 [Example 546, 2-(4-((3-(2-(methylamino)-4-pyrimidinyl)-2-pyridinyl)oxy)phenyl)-N-(5-methyl-3-isoxazolyl)acetamide] | < 10
CNc1nccc(-c2cccnc2Oc2ccc(CC(=O)Nc3ccon3)cc2)n1 [Example 547, N-(3-isoxazolyl)-2-(4-((3-(2-(methylamino)-4-pyrimidinyl)-2-pyridinyl)oxy)phenyl) acetamide] | < 10
CNc1nccc(-c2cccnc2Oc2ccc(CC(=O)Nc3cc(C)[nH]n3)cc2)n1 [Example 548, 2-(4-((3-(2-(methylamino)-4-pyrimidinyl)-2-pyridinyl)oxy)phenyl)-N-(5-methyl-1H-pyrazol-3-yl)acetamide] | < 10
CNc1nccc(-c2cccnc2Oc2ccc(CC(=O)Nc3cccnc3)cc2)n1 [Example 549, 2-(4-((3-(2-(methylamino)-4-pyrimidinyl)-2-pyridinyl)oxy)phenyl)-N-(3-pyridinyl)acetamide] | < 10
CNc1nccc(-c2cccnc2Oc2ccc(CC(=O)Nc3ccncc3)cc2)n1 [Example 550, 2-(4-((3-(2-(methylamino)-4-pyrimidinyl)-2-pyridinyl)oxy)phenyl)-N-(4-pyridinyl)acetamide] | < 10
CNC(=O)c1cccc(NC(=O)Cc2ccc(Oc3ncccc3-c3ccnc(NC)n3)cc2)c1 [Example 551, N-methyl-3-(((4-((3-(2-(methylamino)-4-pyrimidinyl)-2-pyridinyl)oxy)phenyl)acetyl)amino)benzamide] | < 10
CNc1nccc(-c2cccnc2Oc2cc(C(=O)NC3CC3)ccc2C)n1 [Example 553, N-cyclopropyl-4-methyl-3-((3-(2-(methylamino)-4-pyrimidinyl)-2-pyridinyl)oxy)benzamide] | < 10
Cc1cc(NC(=O)Nc2cccc(C(F)(F)F)c2F)ccc1Oc1ncccc1-c1ccncn1 [Example 668, N-(2-fluoro-3-(trifluoromethyl)phenyl)-N′-(3-methyl-4-((3-(4-pyrimidinyl)-2-pyridinyl)oxy)phenyl)urea] | < 10
Cc1cc(Oc2ncccc2-c2ccncn2)c(C)cc1NC(=O)Nc1ccccc1 [Example 672, N-(2,5-dimethyl-4-((3-(4-pyrimidinyl)-2-pyridinyl)oxy)phenyl)-N′-phenylurea] | < 10
Cc1cc(NS(=O)(=O)c2cccc(C(F)(F)F)c2)ccc1Oc1ncccc1-c1ccncn1 [Example 673] | < 10
O=S(=O)(Nc1ccc(Oc2ncccc2-c2ccncn2)c2ccccc12)c1cccc(C(F)(F)F)c1 [Example 679, N-(4-((3-(4-pyrimidinyl)-2-pyridinyl)oxy)-1-naphthalenyl)-3-(trifluoromethyl) benzenesulfonamide] | < 10
O=C(Nc1ccccc1)Nc1ccc(Oc2ncccc2-c2ccncn2)cc1 [Example 682, N-phenyl-N′-(4-((3-(4-pyrimidinyl)-2-pyridinyl)oxy)phenyl)urea] | < 10
Cc1cc(NC(=O)c2cc3ccccc3[nH]2)ccc1Oc1ncccc1-c1ccncn1 [Example 685, N-(3-methyl-4-((3-(4-pyrimidinyl)-2-pyridinyl)oxy)phenyl)-1H-indole-2-carboxamide] | < 10
CNc1nccc(-c2cccnc2Oc2ccc(NC(=O)Cc3ccccc3)cc2C)n1 [Example 777, N-(3-methyl-4-((3-(2-(methylamino)-4-pyrimidinyl)-2-pyridinyl)oxy)phenyl)-2-phenylacetamide] | < 10

Structure (SMILES) | IC50 [µM]
CNc1nccc(-c2cccnc2Oc2ccc(NC(=O)NC3CCCCC3)cc2C)n1 [Example 787, N-cyclohexyl-N′-(3-methyl-4-((3-(2-(methylamino)-4-pyrimidinyl)-2-pyridinyl)oxy)phenyl)urea] | < 10
CNc1nccc(-c2cccnc2Oc2ccc(NC(=O)NC3CCCC3)cc2C)n1 [Example 788, N-cyclopentyl-N′-(3-methyl-4-((3-(2-(methylamino)-4-pyrimidinyl)-2-pyridinyl)oxy)phenyl)urea] | < 10
CNc1nccc(-c2cccnc2Oc2ccc(NC(=O)c3cc4cc(Cl)ccc4[nH]3)cc2C)n1 [Example 811, 5-chloro-N-(3-methyl-4-((3-(2-(methylamino)-4-pyrimidinyl)-2-pyridinyl)oxy)phenyl)-1H-indole-2-carboxamide] | < 10
CCOc1cccc(NC(=O)Nc2ccc(Oc3ncccc3-c3ncnc(NC)n3)c(C)c2)c1 [Example 869, N-(3-(ethyloxy)phenyl)-N′-(3-methyl-4-((3-(4-(methylamino)-1,3,5-triazin-2-yl)-2-pyridinyl)oxy)phenyl)urea] | < 10
CNc1nccc(-c2cccnc2Oc2ccc(NC(=O)NC3CC3)cc2C)n1 [Example 900, N-cyclopropyl-N′-(3-methyl-4-((3-(2-(methylamino)-4-pyrimidinyl)-2-pyridinyl)oxy)phenyl)urea] | < 10
CNc1nccc(-c2cccnc2Sc2ccc(NC(=O)Nc3cccc(F)c3)cc2)n1 [Example 913, N-(3-fluorophenyl)-N′-(4-((3-(2-(methylamino)-4-pyrimidinyl)-2-pyridinyl)sulfanyl)phenyl) urea] | < 10
CNc1nccc(-c2cccnc2Sc2ccc(NC(=O)Nc3ccccc3)cc2)n1 [Example 915, N-(4-((3-(2-(methylamino)-4-pyrimidinyl)-2-pyridinyl)sulfanyl)phenyl)-N′-phenylurea] | < 10
CNc1nccc(-c2cccnc2Oc2ccc(NC(=O)c3ccccc3)cc2)n1 [Example 916, N-(4-((3-(2-(methylamino)-4-pyrimidinyl)-2-pyridinyl)oxy)phenyl) benzamide] | < 10
COc1cc2ncnc(-c3cccnc3Oc3ccc(NC(=O)Nc4cccc(F)c4)cc3)c2cc1OC [Example 919, N-(4-((3-(6,7-bis(methyloxy)-4-quinazolinyl)-2-pyridinyl)oxy)phenyl)-N′-(3-fluorophenyl)urea] | < 10
CNc1cc(-c2cccnc2Oc2ccc(NC(=O)Nc3ccc(OC)cc3OC)cc2)ccn1 [Example 921, N-(2,4-bis(methyloxy)phenyl)-N′-(4-((2′-(methylamino)-3,4′-bipyridin-2-yl)oxy)phenyl)urea] | < 10
CNc1nccc(-c2cccnc2Oc2ccc(NC(=O)c3ccco3)cc2C)n1 [Example 925, N-(3-methyl-4-((3-(2-(methylamino)-4-pyrimidinyl)-2-pyridinyl)oxy)phenyl)-2-furancarboxamide] | < 10
CNc1nccc(-c2cccnc2Sc2ccc(NC(=O)Nc3ccccc3F)cc2)n1 [Example 927, N-(2-fluorophenyl)-N′-(4-((3-(2-(methylamino)-4-pyrimidinyl)-2-pyridinyl)sulfanyl)phenyl) urea] | < 10
CNc1nccc(-c2cccnc2Sc2ccc(NC(=O)Nc3ccccc3Br)cc2)n1 [Example 937, N-(2-bromophenyl)-N′-(4-((3-(2-(methylamino)-4-pyrimidinyl)-2-pyridinyl)sulfanyl)phenyl) urea] | < 10
CCOc1ccccc1NC(=O)Nc1ccc(Sc2ncccc2-c2ccnc(NC)n2)cc1 [Example 938, N-(2-(ethyloxy)phenyl)-N′-(4-((3-(2-(methylamino)-4-pyrimidinyl)-2-pyridinyl)sulfanyl)phenyl) urea] | < 10
CNc1cc(-c2cccnc2Oc2ccc(NC(=O)Nc3ccccc3)cc2)ccn1 [Example 940, N-(4-((2′-(methylamino)-3,4′-bipyridin-2-yl)oxy)phenyl)-N′-phenylurea] | < 10
CNc1nccc(-c2cccnc2Oc2ccc(NC(=O)c3cc(C(C)(C)C)nn3C)cc2C)n1 [Example 950, 3-(1,1-dimethylethyl)-1-methyl-N-(3-methyl-4-((3-(2-(methylamino)-4-pyrimidinyl)-2-pyridinyl)oxy)phenyl)-1H-pyrazole-5-carboxamide] | < 10
CNc1nccc(-c2cccnc2Oc2ccc(NC(=O)c3ccnc4ccccc34)cc2C)n1 [Example 954, N-(3-methyl-4-((3-(2-(methylamino)-4-pyrimidinyl)-2-pyridinyl)oxy)phenyl)-4-quinolinecarboxamide] | < 10

target: Tie-2 kinase enzyme (Homo sapiens, UniProt Q02763); test: Tie-2 Homogenous Time Resolved Fluorescent (HTRF) kinase assay; assay type: biochemical; conditions: read-out: IC50's for the inhibition of Tie-2 as measured by the HTRF assay

Structure (SMILES) | IC50 [µM]
CNc1ncnc(-c2cccnc2Oc2ccc(Cl)c(NC(=O)c3cc(C(F)(F)F)ccc3N(C)C3CCN(C)C3)c2)n1 (stereo not drawn) [Example 1212, N-(2-chloro-5-((3-(4-(methylamino)-1,3,5-triazin-2-yl)-2-pyridinyl)oxy)phenyl)-2-(methyl(1-methyl-3-pyrrolidinyl)amino)-5-(trifluoromethyl) benzamide] | < 5
CNc1ncnc(-c2cccnc2Oc2cc(NC(=O)c3cc(C(F)(F)F)ccc3N(C)CCCN(C)C)ccc2F)n1 [Example 1213, 2-((3-(dimethylamino)propyl)(methyl)amino)-N-(4-fluoro-3-((3-(4-(methylamino)-1,3,5-triazin-2-yl)-2-pyridinyl)oxy)phenyl)-5-(trifluoromethyl) benzamide] | < 5
